Laboratory results published in the supplement of paper PMC10849652.
This is one part of the list.

Protein sequences, listed by entry. Tags and fused reporters are not part of them. Lines headed by an entry give the natural chain unless they say otherwise; changes in a name come on top.
UniProt P40227, whole entry, looked up: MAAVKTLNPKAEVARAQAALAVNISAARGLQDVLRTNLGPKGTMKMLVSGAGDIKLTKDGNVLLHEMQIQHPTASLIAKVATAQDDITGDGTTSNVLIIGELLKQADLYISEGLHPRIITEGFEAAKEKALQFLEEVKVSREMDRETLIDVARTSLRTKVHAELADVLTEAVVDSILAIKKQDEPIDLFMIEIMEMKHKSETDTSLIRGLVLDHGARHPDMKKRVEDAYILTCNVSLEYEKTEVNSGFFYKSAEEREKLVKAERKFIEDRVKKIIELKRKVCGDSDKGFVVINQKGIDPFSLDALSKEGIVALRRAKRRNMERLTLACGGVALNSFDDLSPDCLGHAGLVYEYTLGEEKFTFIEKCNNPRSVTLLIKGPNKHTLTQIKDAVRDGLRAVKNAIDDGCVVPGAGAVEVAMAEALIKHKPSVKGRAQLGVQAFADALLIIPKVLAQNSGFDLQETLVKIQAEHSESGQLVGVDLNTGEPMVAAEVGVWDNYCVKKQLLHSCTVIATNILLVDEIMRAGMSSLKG
UniProt Q9GZT6: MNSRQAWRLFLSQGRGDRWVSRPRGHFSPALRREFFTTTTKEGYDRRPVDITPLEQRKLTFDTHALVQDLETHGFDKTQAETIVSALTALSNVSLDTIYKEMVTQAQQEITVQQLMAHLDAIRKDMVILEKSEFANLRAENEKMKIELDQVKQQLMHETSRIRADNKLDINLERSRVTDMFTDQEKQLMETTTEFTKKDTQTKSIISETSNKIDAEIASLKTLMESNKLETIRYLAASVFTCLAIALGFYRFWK
UniProt P83916, whole entry, looked up: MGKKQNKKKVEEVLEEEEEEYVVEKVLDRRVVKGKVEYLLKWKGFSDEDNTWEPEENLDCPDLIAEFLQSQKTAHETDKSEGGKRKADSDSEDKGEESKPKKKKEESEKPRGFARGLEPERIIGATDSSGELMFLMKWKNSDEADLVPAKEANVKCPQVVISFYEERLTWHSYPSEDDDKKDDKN
UniProt Q08722, whole entry, looked up: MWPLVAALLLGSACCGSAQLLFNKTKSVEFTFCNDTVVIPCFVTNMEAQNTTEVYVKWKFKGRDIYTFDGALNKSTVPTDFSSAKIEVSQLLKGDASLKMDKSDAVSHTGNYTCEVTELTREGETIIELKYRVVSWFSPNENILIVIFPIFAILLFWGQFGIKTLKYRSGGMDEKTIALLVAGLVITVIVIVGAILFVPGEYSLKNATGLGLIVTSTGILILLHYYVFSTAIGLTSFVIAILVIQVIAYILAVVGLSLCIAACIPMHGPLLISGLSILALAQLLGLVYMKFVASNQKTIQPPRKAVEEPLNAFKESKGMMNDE
UniProt O14618: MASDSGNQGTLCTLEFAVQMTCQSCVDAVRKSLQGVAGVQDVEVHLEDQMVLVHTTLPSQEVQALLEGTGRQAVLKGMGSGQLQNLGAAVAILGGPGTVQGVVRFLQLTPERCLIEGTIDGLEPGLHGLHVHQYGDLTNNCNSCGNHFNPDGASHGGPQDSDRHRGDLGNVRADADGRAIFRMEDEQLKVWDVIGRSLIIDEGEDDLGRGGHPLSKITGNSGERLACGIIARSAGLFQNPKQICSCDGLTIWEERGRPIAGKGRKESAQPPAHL
UniProt P48509: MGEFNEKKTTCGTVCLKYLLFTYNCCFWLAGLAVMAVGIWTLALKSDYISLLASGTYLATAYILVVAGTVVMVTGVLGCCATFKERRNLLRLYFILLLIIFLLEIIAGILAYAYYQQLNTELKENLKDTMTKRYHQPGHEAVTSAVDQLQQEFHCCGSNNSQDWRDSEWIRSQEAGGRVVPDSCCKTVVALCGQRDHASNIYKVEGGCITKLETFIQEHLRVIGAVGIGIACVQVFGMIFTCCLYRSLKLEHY
UniProt Q6NZI2: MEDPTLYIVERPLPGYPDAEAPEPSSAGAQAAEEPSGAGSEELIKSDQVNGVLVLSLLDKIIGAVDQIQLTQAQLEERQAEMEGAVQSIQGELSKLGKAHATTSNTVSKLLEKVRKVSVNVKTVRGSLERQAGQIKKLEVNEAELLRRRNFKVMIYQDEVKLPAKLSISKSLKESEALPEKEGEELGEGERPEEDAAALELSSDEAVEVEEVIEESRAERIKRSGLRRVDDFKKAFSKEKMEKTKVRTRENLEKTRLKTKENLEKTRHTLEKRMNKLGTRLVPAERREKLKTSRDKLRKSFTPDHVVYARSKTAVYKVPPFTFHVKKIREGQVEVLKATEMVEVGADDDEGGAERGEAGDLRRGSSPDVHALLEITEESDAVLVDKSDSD
UniProt O95400: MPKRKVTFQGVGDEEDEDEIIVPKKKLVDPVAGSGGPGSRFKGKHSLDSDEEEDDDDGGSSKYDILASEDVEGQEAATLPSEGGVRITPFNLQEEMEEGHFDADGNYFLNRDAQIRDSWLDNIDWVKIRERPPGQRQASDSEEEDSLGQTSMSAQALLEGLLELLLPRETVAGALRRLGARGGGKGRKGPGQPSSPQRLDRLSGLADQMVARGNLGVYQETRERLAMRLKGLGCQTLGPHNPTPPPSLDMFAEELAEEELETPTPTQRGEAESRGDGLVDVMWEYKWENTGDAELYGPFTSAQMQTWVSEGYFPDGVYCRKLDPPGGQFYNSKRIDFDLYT
UniProt P19256, whole entry, looked up: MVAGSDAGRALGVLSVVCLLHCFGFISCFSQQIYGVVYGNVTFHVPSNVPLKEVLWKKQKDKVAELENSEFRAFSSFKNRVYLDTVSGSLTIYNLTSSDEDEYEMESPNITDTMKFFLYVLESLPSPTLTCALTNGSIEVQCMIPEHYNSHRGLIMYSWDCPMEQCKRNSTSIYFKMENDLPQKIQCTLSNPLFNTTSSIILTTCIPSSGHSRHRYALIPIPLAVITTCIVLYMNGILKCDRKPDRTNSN
UniProt Q3V6T2: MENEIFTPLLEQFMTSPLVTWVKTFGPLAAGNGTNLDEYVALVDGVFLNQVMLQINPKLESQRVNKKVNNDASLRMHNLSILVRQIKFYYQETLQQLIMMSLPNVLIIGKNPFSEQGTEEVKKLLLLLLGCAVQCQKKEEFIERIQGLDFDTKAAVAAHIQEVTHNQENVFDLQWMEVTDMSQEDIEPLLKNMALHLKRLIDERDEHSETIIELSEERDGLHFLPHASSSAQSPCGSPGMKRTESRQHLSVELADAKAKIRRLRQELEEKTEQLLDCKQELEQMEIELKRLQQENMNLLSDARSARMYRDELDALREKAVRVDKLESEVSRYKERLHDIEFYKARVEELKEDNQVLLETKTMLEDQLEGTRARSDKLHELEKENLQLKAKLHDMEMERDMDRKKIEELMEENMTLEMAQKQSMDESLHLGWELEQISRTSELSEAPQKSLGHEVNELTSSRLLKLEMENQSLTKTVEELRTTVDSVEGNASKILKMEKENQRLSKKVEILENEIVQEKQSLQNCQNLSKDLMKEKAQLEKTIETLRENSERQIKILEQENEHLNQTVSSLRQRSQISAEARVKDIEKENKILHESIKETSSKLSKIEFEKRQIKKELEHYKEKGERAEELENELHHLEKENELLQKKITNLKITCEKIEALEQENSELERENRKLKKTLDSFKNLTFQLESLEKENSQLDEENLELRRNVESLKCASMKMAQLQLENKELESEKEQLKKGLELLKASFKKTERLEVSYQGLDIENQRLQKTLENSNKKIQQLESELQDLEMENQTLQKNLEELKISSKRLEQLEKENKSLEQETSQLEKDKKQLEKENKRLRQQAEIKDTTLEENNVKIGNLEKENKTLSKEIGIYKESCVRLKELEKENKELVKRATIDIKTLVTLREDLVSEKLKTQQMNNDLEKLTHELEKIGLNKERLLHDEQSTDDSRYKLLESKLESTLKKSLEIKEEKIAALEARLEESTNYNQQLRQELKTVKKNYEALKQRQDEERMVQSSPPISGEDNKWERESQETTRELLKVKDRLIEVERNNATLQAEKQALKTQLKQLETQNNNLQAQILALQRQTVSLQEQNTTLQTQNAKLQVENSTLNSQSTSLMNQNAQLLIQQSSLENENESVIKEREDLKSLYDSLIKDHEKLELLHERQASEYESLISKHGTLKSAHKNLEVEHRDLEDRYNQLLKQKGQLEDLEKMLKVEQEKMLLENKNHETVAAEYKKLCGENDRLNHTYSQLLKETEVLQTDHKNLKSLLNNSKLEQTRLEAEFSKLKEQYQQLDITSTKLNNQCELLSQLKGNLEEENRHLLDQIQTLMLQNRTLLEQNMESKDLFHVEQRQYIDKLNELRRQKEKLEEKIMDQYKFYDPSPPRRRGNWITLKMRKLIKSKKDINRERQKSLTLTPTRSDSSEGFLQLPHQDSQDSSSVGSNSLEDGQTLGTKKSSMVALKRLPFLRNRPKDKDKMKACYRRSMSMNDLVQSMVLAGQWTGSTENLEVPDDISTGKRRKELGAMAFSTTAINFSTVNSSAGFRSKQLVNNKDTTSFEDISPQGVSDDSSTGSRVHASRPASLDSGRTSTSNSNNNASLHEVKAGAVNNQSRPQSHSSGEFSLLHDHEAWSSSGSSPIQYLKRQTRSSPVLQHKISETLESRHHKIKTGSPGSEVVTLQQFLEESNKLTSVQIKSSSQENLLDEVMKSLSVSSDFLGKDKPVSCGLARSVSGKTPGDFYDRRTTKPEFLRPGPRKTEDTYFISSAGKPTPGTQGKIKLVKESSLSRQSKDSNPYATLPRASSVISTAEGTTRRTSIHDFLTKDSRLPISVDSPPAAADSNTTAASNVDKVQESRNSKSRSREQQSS
UniProt Q6PII3: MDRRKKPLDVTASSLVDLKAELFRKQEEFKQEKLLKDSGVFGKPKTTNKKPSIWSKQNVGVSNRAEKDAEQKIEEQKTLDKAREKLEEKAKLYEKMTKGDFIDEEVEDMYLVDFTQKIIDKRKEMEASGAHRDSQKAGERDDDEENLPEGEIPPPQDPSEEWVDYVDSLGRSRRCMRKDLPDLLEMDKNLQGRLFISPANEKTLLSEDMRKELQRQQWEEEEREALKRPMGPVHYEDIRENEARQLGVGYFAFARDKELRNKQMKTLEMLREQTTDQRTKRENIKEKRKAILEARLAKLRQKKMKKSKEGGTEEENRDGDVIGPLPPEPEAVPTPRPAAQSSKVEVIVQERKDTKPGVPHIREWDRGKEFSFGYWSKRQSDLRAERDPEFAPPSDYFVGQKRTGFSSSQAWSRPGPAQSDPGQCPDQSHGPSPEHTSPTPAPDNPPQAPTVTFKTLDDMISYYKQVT
UniProt Q8IWP9: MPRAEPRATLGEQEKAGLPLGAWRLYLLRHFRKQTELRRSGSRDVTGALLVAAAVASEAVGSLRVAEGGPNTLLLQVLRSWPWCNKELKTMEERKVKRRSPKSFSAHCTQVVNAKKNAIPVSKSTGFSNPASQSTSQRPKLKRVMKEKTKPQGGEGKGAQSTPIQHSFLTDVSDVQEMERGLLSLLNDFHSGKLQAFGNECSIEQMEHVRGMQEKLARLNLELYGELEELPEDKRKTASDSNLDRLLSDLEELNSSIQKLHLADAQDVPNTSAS
UniProt O95067, whole entry, looked up: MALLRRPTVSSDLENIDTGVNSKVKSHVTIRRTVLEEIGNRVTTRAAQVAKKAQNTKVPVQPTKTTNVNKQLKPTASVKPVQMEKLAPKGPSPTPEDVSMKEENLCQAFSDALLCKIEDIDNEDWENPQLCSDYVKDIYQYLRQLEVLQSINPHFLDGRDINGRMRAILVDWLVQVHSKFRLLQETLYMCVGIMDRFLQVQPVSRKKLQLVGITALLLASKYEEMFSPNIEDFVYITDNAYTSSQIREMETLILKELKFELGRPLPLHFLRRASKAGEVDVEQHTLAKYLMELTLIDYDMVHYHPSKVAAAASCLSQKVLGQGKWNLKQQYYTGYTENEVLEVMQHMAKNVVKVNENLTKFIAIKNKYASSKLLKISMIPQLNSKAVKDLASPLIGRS
UniProt P51946: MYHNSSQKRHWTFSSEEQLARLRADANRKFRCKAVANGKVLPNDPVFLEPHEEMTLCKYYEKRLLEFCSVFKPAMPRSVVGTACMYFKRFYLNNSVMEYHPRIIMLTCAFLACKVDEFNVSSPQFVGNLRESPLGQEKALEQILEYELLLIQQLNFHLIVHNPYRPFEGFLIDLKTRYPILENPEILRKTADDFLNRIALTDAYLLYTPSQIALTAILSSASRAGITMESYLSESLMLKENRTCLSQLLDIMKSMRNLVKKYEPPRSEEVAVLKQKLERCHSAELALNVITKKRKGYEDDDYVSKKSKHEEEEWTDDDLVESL
UniProt Q8WUD4: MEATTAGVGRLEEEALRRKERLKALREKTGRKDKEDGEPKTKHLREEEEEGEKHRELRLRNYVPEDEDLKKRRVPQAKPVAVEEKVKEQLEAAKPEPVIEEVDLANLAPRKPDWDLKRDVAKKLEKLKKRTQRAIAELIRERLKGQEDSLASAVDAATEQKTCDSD

Key:
Assay in all cases: log2 fold change, soluble protein after heating vs DMSO (PISA); higher = thermal stabilisation; K562 lysate, 10 uM; active = over 0.2 and 3.5 SD of the protein, either way, in both replicates (recomputed)
vemurafenib = compound: CCCS(=O)(=O)Nc1ccc(F)c(C(=O)c2c[nH]c3ncc(-c4ccc(Cl)cc4)cc23)c1F [vemurafenib]
Procedure, shortened: (§1)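 K562 pellets were dounce-homogenised in PBS pH 7.4 containing 1 mM MgCl2, and the crude extract, at 1 mg/mL protein, was exposed to 10 μM compound for 30 min. Aliquots were heated for 3 min across 48°C-58°C, pooled, brought to 0.5% NP-40 at 4°C and spun at 21,000xg for 90 min, with the supernatant taken as soluble protein. TMTpro 16plex LC-MS/MS with equalised channel sums quantified that protein. Values are log-two fold changes in thermal stability relative to solvent controls, taken from duplicates.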

[1] = compound: CCCS(=O)(=O)Nc1ccc(F)c(C(=O)c2c[nH]c3ncc(Cl)cc23)c1F
Procedure, shortened: as §1

barasertib = compound: CCN(CCCOc1ccc2c(Nc3cc(CC(=O)Nc4cccc(F)c4)[nH]n3)ncnc2c1)CCOP(=O)(O)O [barasertib]
Procedure, shortened: as §1

[2] = compound: CC[C@@H]1C(=O)N(C)c2cnc(Nc3ccc(C(=O)NC4CCN(C)CC4)cc3OC)nc2N1C1CCCC1
Procedure, shortened: as §1

volasertib = compound: CC[C@@H]1C(=O)N(C)c2cnc(Nc3ccc(C(=O)N[C@H]4CC[C@H](N5CCN(CC6CC6)CC5)CC4)cc3OC)nc2N1C(C)C [volasertib]
Procedure, shortened: as §1

[3] = compound: CCn1c(C(=O)N(C2CC2)C2CC2)cc2c3c(ncn3C)c(Nc3cc(C)n(C)n3)nc21
Procedure, shortened: as §1

[4] = compound: CCn1cc(-c2ccnc3[nH]c(-c4cccc(CN(C)C)c4)cc23)c(-c2ccc(NC(=O)N(C)C)cc2)n1
Procedure, shortened: as §1

[5] = compound: CN1CCC(CNc2ccc3ncc(-c4cccc(OC(F)(F)F)c4)n3n2)CC1
Procedure, shortened: as §1

saracatinib = compound: CN1CCN(CCOc2cc(OC3CCOCC3)c3c(Nc4c(Cl)ccc5c4OCO5)ncnc3c2)CC1 [saracatinib]
Procedure, shortened: as §1

sotrastaurin = compound: CN1CCN(c2nc(C3=C(c4c[nH]c5ccccc45)C(=O)NC3=O)c3ccccc3n2)CC1 [sotrastaurin]
Procedure, shortened: as §1

alvocidib = compound: CN1CC[C@H](c2c(O)cc(O)c3c(=O)cc(-c4ccccc4Cl)oc23)[C@H](O)C1 [alvocidib]
Procedure, shortened: as §1

Tubastatin A = compound: CN1CCc2c(c3ccccc3n2Cc2ccc(C(=O)NO)cc2)C1 [Tubastatin A]
Procedure, shortened: as §1

[6] = compound: CNC(=O)C1=CC=CC=C1NC2=NC(=NC=C2Cl)NC3=C(C=C(C=C3)N4CCOCC4)OC
Procedure, shortened: as §1

defactinib = compound: CNC(=O)c1ccc(Nc2ncc(C(F)(F)F)c(NCc3nccnc3N(C)S(C)(=O)=O)n2)cc1 [defactinib]
Procedure, shortened: as §1

[7] = compound: CNc1nc(-c2ccc3c(N)n[nH]c3c2)cc(N2C[C@@H](C(=O)NC3CCCCC3)CC[C@H]2C)n1
Procedure, shortened: as §1

encorafenib = compound: COC(=O)N[C@@H](C)CNc1nccc(-c2cn(C(C)C)nc2-c2cc(Cl)cc(NS(C)(=O)=O)c2F)n1 [encorafenib]
Procedure, shortened: as §1

[8] = compound: COC(=O)[C@H](CCSC)NC(=O)C1=C(C=C(C=C1)NC[C@H](CS)N)C2=CC=CC=C2
Procedure, shortened: as §1

alisertib = compound: COc1cc(Nc2ncc3c(n2)-c2ccc(Cl)cc2C(c2c(F)cccc2OC)=NC3)ccc1C(=O)O [alisertib]
Procedure, shortened: as §1

[9] = compound: COc1cc2nc(-c3cc(F)ccc3O)nc(N[C@@H]3CNC[C@H]3C(C)(C)O)c2cc1OC
Procedure, shortened: as §1

gefitinib = compound: COc1cc2ncnc(Nc3ccc(F)c(Cl)c3)c2cc1OCCCN1CCOCC1 [gefitinib]
Procedure, shortened: as §1

Measured: log2 fold change

CCT6A (UniProt P40227)
inactive: vemurafenib -0.026 | [1] -0.005 | barasertib -0.03 | [2] -0.006 | volasertib 0.024 | [3] 0.011 | [4] -0.024 | [5] -0.002 | saracatinib -0.004 | sotrastaurin -0.001 | alvocidib 0.027 | Tubastatin A 0.025 | [6] 0.006 | defactinib -0.018 | [7] -0.001 | encorafenib -0.015 | [8] -0.024 | alisertib 0.012 | [9] -0.003 | gefitinib -0.021

CCDC90B (UniProt Q9GZT6)
inactive: vemurafenib 0.013 | [1] 0.002 | barasertib 0.061 | [2] -0.044 | volasertib 0.047 | [3] 0.013 | [4] 0.132 | [5] -0.093 | saracatinib -0.018 | sotrastaurin -0.06 | alvocidib 0.054 | Tubastatin A 0.045 | [6] 0.026 | defactinib 0.117 | [7] 0.033 | encorafenib 0.015 | [8] -0.164 | alisertib -0.04 | [9] 0.019 | gefitinib -0.026

CBX1 (UniProt P83916)
active: [4] 0.301
inactive: vemurafenib 0.001 | [1] 0.015 | barasertib -0.075 | [2] 0.028 | volasertib 0.01 | [3] 0.006 | [5] -0.111 | saracatinib -0.003 | sotrastaurin 0.038 | alvocidib 0.078 | Tubastatin A 0.011 | [6] 0.011 | defactinib -0.001 | [7] 0.025 | encorafenib 0.01 | [8] -0.055 | alisertib 0.012 | [9] -0.025 | gefitinib 0.059

2 consecutive entries from above, quoted:
CCDC90B (UniProt Q9GZT6)
inactive: vemurafenib 0.013 | [1] 0.002 | barasertib 0.061 | [2] -0.044 | volasertib 0.047 | [3] 0.013 | [4] 0.132 | [5] -0.093 | saracatinib -0.018 | sotrastaurin -0.06 | alvocidib 0.054 | Tubastatin A 0.045 | [6] 0.026 | defactinib 0.117 | [7] 0.033 | encorafenib 0.015 | [8] -0.164 | alisertib -0.04 | [9] 0.019 | gefitinib -0.026

CBX1 (UniProt P83916)
active: [4] 0.301
inactive: vemurafenib 0.001 | [1] 0.015 | barasertib -0.075 | [2] 0.028 | volasertib 0.01 | [3] 0.006 | [5] -0.111 | saracatinib -0.003 | sotrastaurin 0.038 | alvocidib 0.078 | Tubastatin A 0.011 | [6] 0.011 | defactinib -0.001 | [7] 0.025 | encorafenib 0.01 | [8] -0.055 | alisertib 0.012 | [9] -0.025 | gefitinib 0.059

Carrying on:

CD47 (UniProt Q08722)
inactive: vemurafenib 0.008 | [1] -0.028 | barasertib -0.011 | [2] 0.019 | volasertib 0.055 | [3] -0.037 | [4] -0.133 | [5] 0.073 | saracatinib 0.05 | sotrastaurin -0.003 | alvocidib -0.076 | Tubastatin A 0.074 | [6] 0.014 | defactinib -0.105 | [7] 0.022 | encorafenib 0.008 | [8] -0.094 | alisertib -0.009 | [9] 0.033 | gefitinib 0.019

CCS (UniProt O14618)
inactive: vemurafenib -0.031 | [1] -0.012 | barasertib 0.101 | [2] -0.053 | volasertib 0.01 | [3] 0.023 | [4] -0.051 | [5] 0.05 | saracatinib -0.005 | sotrastaurin 0.009 | alvocidib -0.01 | Tubastatin A 0.032 | [6] -0.023 | defactinib -0.008 | [7] -0.041 | encorafenib -0.001 | [8] 0 | alisertib 0.006 | [9] 0.007 | gefitinib 0.007

CD151 (UniProt P48509)
inactive: vemurafenib -0.01 | [1] 0.024 | barasertib 0.038 | [2] 0.037 | volasertib 0.015 | [3] -0.005 | [4] -0.211 | [5] 0.05 | saracatinib 0.063 | sotrastaurin 0.169 | alvocidib -0.206 | Tubastatin A -0.029 | [6] -0.011 | defactinib -0.005 | [7] 0.028 | encorafenib -0.05 | [8] -0.031 | alisertib -0.018 | [9] -0.001 | gefitinib 0.299

CAVIN1 (UniProt Q6NZI2)
inactive: vemurafenib 0.015 | [1] 0.019 | barasertib -0.006 | [2] 0.024 | volasertib 0 | [3] -0.016 | [4] 0 | [5] -0.052 | saracatinib 0.032 | sotrastaurin 0.01 | alvocidib 0.029 | Tubastatin A 0.039 | [6] 0.03 | defactinib -0.034 | [7] 0.034 | encorafenib 0.015 | [8] 0.045 | alisertib -0.003 | [9] 0.023 | gefitinib 0.006

CD2BP2 (UniProt O95400)
inactive: vemurafenib -0.005 | [1] 0.033 | barasertib 0.026 | [2] 0.007 | volasertib -0.004 | [3] -0.003 | [4] 0.169 | [5] -0.051 | saracatinib 0.005 | sotrastaurin -0.008 | alvocidib 0.046 | Tubastatin A -0.043 | [6] -0.019 | defactinib 0.011 | [7] 0.002 | encorafenib 0.027 | [8] -0.132 | alisertib -0.001 | [9] -0.01 | gefitinib -0.02

CD58 (UniProt P19256)
inactive: vemurafenib -0.09 | [1] -0.025 | barasertib 0.02 | [2] -0.047 | volasertib 0.021 | [3] 0.039 | [4] 0.048 | [5] 0.08 | saracatinib -0.01 | sotrastaurin 0.074 | alvocidib -0.041 | Tubastatin A -0.011 | [6] 0.008 | defactinib 0.038 | [7] 0.043 | encorafenib 0.013 | [8] -0.076 | alisertib 0.028 | [9] 0.002 | gefitinib -0.032

CCDC88A (UniProt Q3V6T2)
inactive: vemurafenib -0.031 | [1] -0.009 | barasertib 0.02 | [2] -0.045 | volasertib -0.02 | [3] 0.015 | [4] 0.015 | [5] -0.027 | saracatinib 0.005 | sotrastaurin 0.01 | alvocidib -0.031 | Tubastatin A -0.001 | [6] -0.01 | defactinib 0.015 | [7] 0.008 | encorafenib -0.002 | [8] 0.046 | alisertib 0.011 | [9] 0.019 | gefitinib -0.008

CCDC174 (UniProt Q6PII3)
inactive: vemurafenib -0.015 | [1] 0.026 | barasertib -0.005 | [2] 0.065 | volasertib 0.021 | [3] 0.024 | [4] 0.036 | [5] 0.01 | saracatinib 0.001 | sotrastaurin -0.019 | alvocidib -0.037 | Tubastatin A 0.012 | [6] -0.006 | defactinib 0.031 | [7] -0.005 | encorafenib 0.022 | [8] -0.05 | alisertib -0.028 | [9] -0.047 | gefitinib -0.008

CCDC28A (UniProt Q8IWP9)
inactive: vemurafenib 0.015 | [1] 0.019 | barasertib -0.008 | [2] 0.11 | volasertib -0.055 | [3] -0.062 | [4] 0.112 | [5] -0.042 | saracatinib -0.038 | sotrastaurin 0.03 | alvocidib -0.007 | Tubastatin A 0.039 | [6] 0.01 | defactinib 0.061 | [7] 0.018 | encorafenib 0.051 | [8] -0.048 | alisertib -0.026 | [9] -0.007 | gefitinib 0

CCNB2 (UniProt O95067)
inactive: vemurafenib 0.04 | [1] -0.008 | barasertib 0.06 | [2] 0.037 | volasertib -0.072 | [3] -0.059 | [4] -0.085 | [5] 0.011 | saracatinib 0.038 | sotrastaurin 0.078 | alvocidib 0.046 | Tubastatin A 0.027 | [6] 0.028 | defactinib -0.044 | [7] 0 | encorafenib 0.039 | [8] 0.032 | alisertib -0.076 | [9] 0.031 | gefitinib 0.084

CBS (UniProt P35520)
inactive: vemurafenib -0.073 | [1] 0.009 | barasertib -0.021 | [2] -0.035 | volasertib -0.003 | [3] 0.02 | [4] -0.019 | [5] 0.025 | saracatinib -0.014 | sotrastaurin 0.023 | alvocidib 0.023 | Tubastatin A 0.016 | [6] -0.04 | defactinib 0.011 | [7] -0.052 | encorafenib -0.001 | [8] 0 | alisertib 0.017 | [9] 0.003 | gefitinib -0.004

CCNH (UniProt P51946)
inactive: vemurafenib -0.025 | [1] 0.001 | barasertib -0.035 | [2] 0.036 | volasertib 0.003 | [3] -0.034 | [4] 0.054 | [5] -0.062 | saracatinib -0.036 | sotrastaurin 0.033 | alvocidib 0.006 | Tubastatin A 0.016 | [6] -0.015 | defactinib 0.026 | [7] -0.018 | encorafenib 0.033 | [8] -0.047 | alisertib -0.005 | [9] -0.007 | gefitinib 0.024

CCDC12 (UniProt Q8WUD4)
inactive: vemurafenib -0.028 | [1] -0.001 | barasertib -0.071 | [2] 0.035 | volasertib 0.043 | [3] -0.009 | [4] 0.106 | [5] 0.003 | saracatinib 0.015 | sotrastaurin 0.066 | alvocidib -0.012 | Tubastatin A 0.092 | [6] -0.016 | defactinib -0.013 | [7] -0.018 | encorafenib -0.054 | [8] -0.047 | alisertib -0.009 | [9] 0.01 | gefitinib -0.003
